No constants are given. Whether binding was seen depends on the method and setting. Binding seen in cells or lysates may run through a third protein. Some entries that bind do so weakly or less than the wild type. Tags and fused reporters may be left off the sequences shown.

Chains of the proteins cited; added tags and fusions are not shown. Residues count along the entry.
UniProt P29317, residues 24-976: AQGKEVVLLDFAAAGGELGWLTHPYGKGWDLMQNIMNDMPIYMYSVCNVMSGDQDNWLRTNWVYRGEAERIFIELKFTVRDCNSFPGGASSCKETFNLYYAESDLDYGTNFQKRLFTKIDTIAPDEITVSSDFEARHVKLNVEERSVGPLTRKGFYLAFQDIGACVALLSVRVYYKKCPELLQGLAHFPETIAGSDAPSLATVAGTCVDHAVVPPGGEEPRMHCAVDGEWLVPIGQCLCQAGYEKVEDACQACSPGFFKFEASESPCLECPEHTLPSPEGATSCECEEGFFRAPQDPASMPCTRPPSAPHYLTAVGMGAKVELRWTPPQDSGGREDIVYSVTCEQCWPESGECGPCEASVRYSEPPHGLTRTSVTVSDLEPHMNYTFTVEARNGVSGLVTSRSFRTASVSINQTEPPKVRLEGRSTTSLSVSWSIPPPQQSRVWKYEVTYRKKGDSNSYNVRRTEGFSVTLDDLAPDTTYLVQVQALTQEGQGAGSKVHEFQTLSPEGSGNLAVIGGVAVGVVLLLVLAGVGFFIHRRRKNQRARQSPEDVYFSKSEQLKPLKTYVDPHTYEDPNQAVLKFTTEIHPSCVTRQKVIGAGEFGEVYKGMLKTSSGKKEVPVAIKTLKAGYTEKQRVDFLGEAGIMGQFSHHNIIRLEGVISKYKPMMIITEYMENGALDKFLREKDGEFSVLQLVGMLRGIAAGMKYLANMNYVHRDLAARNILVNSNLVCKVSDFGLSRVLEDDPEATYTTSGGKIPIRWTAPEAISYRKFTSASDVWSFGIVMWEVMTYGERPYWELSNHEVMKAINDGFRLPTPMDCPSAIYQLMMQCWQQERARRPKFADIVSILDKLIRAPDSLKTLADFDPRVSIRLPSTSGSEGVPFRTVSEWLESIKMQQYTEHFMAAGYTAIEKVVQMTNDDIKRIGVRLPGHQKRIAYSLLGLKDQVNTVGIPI

Holding throughout (experiment): co-IP; 293 T cells transfected with FLAG-MFSD4A, GFP-EPHA2 and HA-RNF149 together; lysates with anti-Flag, anti-GFP or anti-HA antibodies or IgG overnight at 4 °C, protein A/G magnetic beads, immunoblot with anti-GFP, anti-FLAG and anti-HA
Assay [1] deals with T1, Flag-tagged MFSD4A, transfected in 293 T cells (UniProt Q8N468).
T1 sequence: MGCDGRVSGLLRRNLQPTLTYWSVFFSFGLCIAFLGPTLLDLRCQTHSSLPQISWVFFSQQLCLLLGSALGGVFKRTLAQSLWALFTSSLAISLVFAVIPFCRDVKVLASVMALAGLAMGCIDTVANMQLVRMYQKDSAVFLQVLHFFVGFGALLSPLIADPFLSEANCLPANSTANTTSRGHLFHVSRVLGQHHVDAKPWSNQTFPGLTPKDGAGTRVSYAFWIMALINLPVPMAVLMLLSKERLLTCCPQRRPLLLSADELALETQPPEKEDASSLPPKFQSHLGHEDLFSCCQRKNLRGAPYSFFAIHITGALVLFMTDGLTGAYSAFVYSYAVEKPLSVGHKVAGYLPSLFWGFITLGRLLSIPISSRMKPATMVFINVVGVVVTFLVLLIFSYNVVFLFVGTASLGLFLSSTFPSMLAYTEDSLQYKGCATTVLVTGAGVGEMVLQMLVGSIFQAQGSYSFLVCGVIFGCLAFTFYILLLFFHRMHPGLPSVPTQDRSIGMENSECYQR

In a further assay the target is T2, HA-tagged RNF149 (UniProt Q8NC42).
T2 sequence: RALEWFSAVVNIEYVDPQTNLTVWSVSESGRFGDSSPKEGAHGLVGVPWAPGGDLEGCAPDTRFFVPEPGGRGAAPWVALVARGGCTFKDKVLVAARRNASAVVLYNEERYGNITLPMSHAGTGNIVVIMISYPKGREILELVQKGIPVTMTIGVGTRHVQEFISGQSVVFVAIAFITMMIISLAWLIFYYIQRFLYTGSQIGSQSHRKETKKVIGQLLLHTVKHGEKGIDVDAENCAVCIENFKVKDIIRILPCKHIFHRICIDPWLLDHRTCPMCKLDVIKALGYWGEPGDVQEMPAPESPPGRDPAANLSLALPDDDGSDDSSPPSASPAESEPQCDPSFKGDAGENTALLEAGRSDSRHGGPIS

Another assay addresses GFP-tagged EPHA2 (UniProt P29317).

In the case of “GFP-tagged EPHA2 (from UniProt P29317 24-976) (receptor)”, the binding entry (in assay [1]; with HA-tagged RNF149) was “binds” throughout.

B1: Flag-tagged MFSD4A, transfected in 293 T cells (protein, UniProt Q8N468 1-514)
chain: T1 sequence
Turning to B1, the binding result with HA-tagged RNF149 and in the assay with GFP-tagged EPHA2 was “binds” each time.

The record behind these values is PMC9001682.
